# Some of the results follow. Further columns of the screen follow, without active or inactive calls. Compounds called inactive in the main read-out are mostly missing here. Words in brackets tell the shape of the fitted curve; partial curves, single points and poor fits give uncertain potencies.
# Assay: qHTS Assay for Modulators of Lamin A Splicing
# Conditions: HeLa LMNA splicing GFP/RFP minigene ratio, 48 h
# In short: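 S3 HeLa cells stably expressing lamin A-EGFP splicing minigene plus DsRed2, 600 cells/well, 48 h compound exposure at 37C. Laser-scanning cytometry; analysed as GFP (500-530 nm)/RFP (575-640 nm) total intensity ratio; 0.5% DMSO vehicle.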
# [1] = measured here: GFP splicing reporter channel
# [2] = measured here: RFP viability control channel
SMILES,AC50 [1],AC50 [2]
OC1CCN(c2c3c(nc4cc(-c5ccc(F)cc5)nn24)CCC3)CC1,"10 µM [rising, partial curve]",
CC1=C(C)CC(C(=O)NNC(=O)c2ccccc2O)C(C(=O)O)C1 (stereo not given),,"25.1 µM [rising, single point]"
COc1cc(NC(=O)c2ccccc2-c2ccccc2)cc(OC)c1OC,"35.5 µM [falling, single point]",
O=C(N/N=C/C(Br)=C/c1ccccc1)c1cc(-c2ccco2)[nH]n1,"11.2 µM [falling, single point]",
CCN(CC)CCNC(=O)c1cc2cc(Br)ccc2s1,"0.0355 µM [rising, full curve]","0.0355 µM [rising, full curve, poor fit]"
COc1cccc(-n2c(C)nc3c(cnn3-c3ccc(C)cc3)c2=O)c1,,"20 µM [rising, single point]"
CCOC(=O)c1[nH]c2ccccc2c1NC(=O)c1ccc(Br)o1,"12.6 µM [rising, single point]","12.6 µM [rising, single point]"
Cn1c(Oc2ccc(F)cc2F)c(C=O)c2ccccc21,"0.0316 µM [falling, full curve, poor fit]",
CC(C)(C)OC(=O)N1CCC(c2c(C(=O)Nc3ccc4c(c3)OCO4)cnn2-c2ccc(F)cc2F)CC1,"10 µM [falling, partial curve]",
Cc1ccc(NC(=O)CCc2nc3ccccc3s2)c(O)c1,,"3.16 µM [falling, full curve, poor fit]"
CSCC[C@H](NC(=O)OC(C)(C)C)c1nnc(SCC=C(C)C)o1,"0.0178 µM [rising, full curve, poor fit]","35.5 µM [rising, single point]"
O=C(c1cccc(C(=O)N2CCN(c3ccc(F)cc3)CC2)c1)N1CCN(c2ccc(F)cc2)CC1,"7.08 µM [rising, partial curve]","7.94 µM [rising, partial curve]"
CC(=O)CCS(=O)(=O)c1ccc(Oc2ccc(S(=O)(=O)CCC(C)=O)cc2)cc1,"35.5 µM [falling, single point]","35.5 µM [falling, single point]"
Cc1cc(Cl)ccc1OC(C)C(=O)Nc1ccc([N+](=O)[O-])cn1 (stereo not given),,"14.1 µM [rising, partial curve]"
CCc1ccc(NC(=O)CSC2=Nc3ccccc3C3=NC(CC(=O)NCc4ccc5c(c4)OCO5)C(=O)N23)cc1 (stereo not given),"0.00355 µM [falling, full curve, poor fit]",

# Quoted from above (2 entries):
SMILES,AC50 [1],AC50 [2]
Cc1ccc(NC(=O)CCc2nc3ccccc3s2)c(O)c1,,"3.16 µM [falling, full curve, poor fit]"
CSCC[C@H](NC(=O)OC(C)(C)C)c1nnc(SCC=C(C)C)o1,"0.0178 µM [rising, full curve, poor fit]","35.5 µM [rising, single point]"

# From PubChem BioAssay AID1487 (National Center for Advancing Translational Sciences (NCATS), 2009)
